The assay deals with DLC-1::GFP (dynein light chain 1 fused to GFP) (C. elegans) (UniProt Q22799). The assay is described as follows: co-IP; DLC-1::GFP precipitated with GFP-trap; blot probed with an antibody against CED-4, pull-down of DLC-1::GFP verified with an antibody against GFP.

Chains of the proteins cited; added tags and fusions are not shown.
UniProt Q22799: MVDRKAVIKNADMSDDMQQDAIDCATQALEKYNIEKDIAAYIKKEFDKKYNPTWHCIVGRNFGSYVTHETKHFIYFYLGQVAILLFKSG

Results are given in words; binding and its absence hold for the method and conditions named. Binding seen in cells or lysates may run through a third protein.

B1: CED-4 (Apaf1) (protein, UniProt P30429 1-549)
chain: MLCEIECRALSTAHTRLIHDFEPRDALTYLEGKNIFTEDHSELISKMSTRLERIANFLRIYRRQASELGPLIDFFNYNNQSHLADFLEDYIDFAINEPDLLRPVVIAPQFSRQMLDRKLLLGNVPKQMTCYIREYHVDRVIKKLDEMCDLDSFFLFLHGRAGSGKSVIASQALSKSDQLIGINYDSIVWLKDSGTAPKSTFDLFTDILLMLKSEDDLLNFPSVEHVTSVVLKRMICNALIDRPNTLFVFDDVVQEETIRWAQELRLRCLVTTRDVEISNAASQTCEFIEVTSLEIDECYDFLEAYGMPMPVGEKEEDVLNKTIELSSGNPATLMMFFKSCEPKTFEKMAQLNNKLESRGLVGVECITPYSYKSLAMALQRCVEVLSDEDRSALAFAVVMPPGVDIPVKLWSCVIPVDICSNEEEQLDDEVADRLKRLSKRGALLSGKRMPVLTFKIDHIIHMFLKHVVDAQTIANGISILEQRLLEIGNNNVSVPERHIPSHFQKFRRSSASEMYPKTTEETVIRPEDFPKFMQLHQKFYDSLKNFACC
Consider B1, for which the binding entry is reported as “no binding”.

These data come from PMC6160458.
